The data set concerns prothrombin time (PT) of control plasma NKP. The experiment in a line: 20 μL and 5 μL PT methods with reagent P161 at various added CaCl2, NKP + 500 μg/L apixaban. Type of data set: biochemical. The note with it: level at which ratio reaches 1.104 (2*SD). The method, then:
With each reagent three samples were analyzed by the two PT methods of the anticoagulant assay, the 20 μL-method and the 5 μL-method. Two of the samples were reference samples, the control plasmas NKP and ZAP, with established INR values of 1.00 and 2.50, respectively.

For `COc1ccc(-n2nc(C(N)=O)c3c2C(=O)N(c2ccc(N4CCCCC4=O)cc2)CC3)cc1` [apixaban], the apixaban detection limit amounted to 38 µg/L (reagent P161, added Ca2+ 16 mM); 39 µg/L (reagent P161, added Ca2+ 24 mM); 41 µg/L (reagent P161, added Ca2+ 32 mM).

(Values after patent US10613104B2, “Assay to determine anticoagulants in blood or blood plasma” (ZAFENA AB, priority 2014, dated 2020).)
